For at least one compound, name, drawing or mass did not settle the structure.
Legend:
TNFα induction of NF-κB = test: TNFα induced counterscreen assay, HEK293 NF-κB Luc cells; type: cell-based, human; conditions: drug dose-response format, 40 ng/ml TNFα
Excerpt: TNFα induction of the HEK293 NF-κB cell line was used as a counterscreen. […] Furthermore, we tested the two control compounds, LY294002 and BAY11-7082, in a drug dose-response format. […] We anticipate that compounds that directly affect Fn14 oligomerization, TWEAK ligation, or signaling proteins specific to the TWEAK-Fn14 signaling pathway that drive NF-κB activation will show minimal activity in the TNFα counterscreen assay. In order to eliminate the false positive hits from the pilot screen, we further performed the counterscreen by testing 35 “positives” from the Prestwick collection against HEK293 NF-KB-Luc control cell lines induced by TNFα. From this experiment we eliminated 28 compounds that inhibited luciferase expression after TNFα induction of HEK293 NF-KB Luc cells. Thus, after counterscreen only 7 compounds appeared to be specific inhibitors to the TWEAK-Fn14 signaling pathway. […] Overall, through our pilot primary screen and counterscreen, our hit rate approached 0.6% for this targeted collection. We expect a random collection to yield a lower hit-rate, which will be further reduced through the chemoinformatic filtering for luciferase false positive artifacts. Furthermore, secondary assays will be critical as cytotoxic false positives appeared to be about 80% from our pilot screen. […]

[1] = test system: TWEAK-Fn14 signaling pathway; test: TWEAK induced Fn14-NF-κB Luc assay, optimized 384-well HTS format; type: cell-based, human; conditions: 1000 cells/well, 40 ng/mL TWEAK 8 hr, 1 hr pre-incubation
Excerpt: Human embryonic kidney cells (HEK293) express low levels of the Fn14 receptor. We developed a cell-based assay for the Fn14-TWEAK pathway signaling events using HEK293 cells that stably co-expresses high levels of full length Fn14 receptor and a firefly luciferase reporter driven by NF-KB-response elements (Fn14-NF-KB-Luc).
We optimized HEK293 Fn14-NF-KB Luc cell line for HTS by testing TWEAK-stimulated Luc-reporting as a function of growth medium, TWEAK concentration, induction time, assay duration, cell density, and DMSO concentration. For example, we seeded HEK293 Fn14-NF-KB-Luc and control cells (HEK293 NFKB-Luc) into a 96-well plate at a density of 10,000 cells/well, in DMEM or Opti-MEM® (Reduced serum media, protein concentration 15 μg/mL) and incubated at 37 C for 24 or 48 h. We then induced them with various concentrations of TWEAK in buffer or buffer alone (PBS+1 mg/mL BSA) for 5 hr and then measured firefly luciferase levels by chemiluminescence (Bright-Glo™ Promega). […] These initial conditions formed the basis for transfer of the assay into a 384-well format and further optimization with respect to cell seeding density, induction time, and TWEAK concentration. […]

**Q.** With `O=c1cc(N2CCOCC2)oc2c(-c3ccccc3)cccc12` [LY294002] as the compound, how does the “drug inhibition of TNFα activation, Fn14 versus control cell lines” value (TNFα induction of NF-κB) read?
**A.** no significant difference

**Q.** What about the “effect on TWEAK induced Fn14-NF-κB Luc signal” value [1] of the same compound?
**A.** dose-dependent manner

Reference: patent publication US9238034B2, “FN14 antagonists and therapeutic uses thereof” (THE TRANSLATIONAL GENOMICS RESEARCH INSTITUTE, priority 2013, dated 2016)
